Measured values: the supplement of paper PMC10849652
The list shows a part of the results.

The chains behind the UniProt entries cited, without tags or fusion partners. Where a name states a change or a piece, a line headed by the entry shows the natural chain unless it says otherwise.
UniProt P55036: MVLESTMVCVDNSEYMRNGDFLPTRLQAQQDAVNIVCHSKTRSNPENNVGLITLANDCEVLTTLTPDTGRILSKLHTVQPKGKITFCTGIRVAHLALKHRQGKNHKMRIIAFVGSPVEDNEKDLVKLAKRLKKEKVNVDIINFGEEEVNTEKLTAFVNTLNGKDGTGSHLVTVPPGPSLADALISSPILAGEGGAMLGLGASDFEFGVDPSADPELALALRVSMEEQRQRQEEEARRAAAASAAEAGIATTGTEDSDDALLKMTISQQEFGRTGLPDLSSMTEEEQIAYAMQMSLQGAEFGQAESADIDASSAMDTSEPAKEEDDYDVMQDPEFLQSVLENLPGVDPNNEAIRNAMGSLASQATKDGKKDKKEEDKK
UniProt P49023, whole entry, looked up: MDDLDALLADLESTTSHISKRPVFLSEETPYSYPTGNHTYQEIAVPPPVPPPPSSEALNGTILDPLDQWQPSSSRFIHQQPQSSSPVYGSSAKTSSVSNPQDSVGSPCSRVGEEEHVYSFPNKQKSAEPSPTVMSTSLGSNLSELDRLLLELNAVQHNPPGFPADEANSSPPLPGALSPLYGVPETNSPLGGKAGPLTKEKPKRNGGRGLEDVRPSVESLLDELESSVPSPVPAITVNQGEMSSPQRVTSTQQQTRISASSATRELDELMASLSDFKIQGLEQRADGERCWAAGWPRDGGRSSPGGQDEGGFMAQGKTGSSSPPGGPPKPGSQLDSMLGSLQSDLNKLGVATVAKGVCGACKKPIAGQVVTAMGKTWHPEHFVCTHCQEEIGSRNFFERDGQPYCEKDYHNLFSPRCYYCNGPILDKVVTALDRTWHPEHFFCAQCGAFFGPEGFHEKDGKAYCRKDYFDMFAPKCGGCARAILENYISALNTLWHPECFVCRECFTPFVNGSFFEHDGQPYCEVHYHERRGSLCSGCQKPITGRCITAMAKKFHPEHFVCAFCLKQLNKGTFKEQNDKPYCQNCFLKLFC
UniProt Q9ULZ3, whole entry, looked up: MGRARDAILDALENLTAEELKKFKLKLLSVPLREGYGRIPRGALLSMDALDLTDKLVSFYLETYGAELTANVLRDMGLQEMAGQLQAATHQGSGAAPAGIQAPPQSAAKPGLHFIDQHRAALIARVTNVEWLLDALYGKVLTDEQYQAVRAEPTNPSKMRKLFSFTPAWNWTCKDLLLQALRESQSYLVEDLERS
UniProt O75832: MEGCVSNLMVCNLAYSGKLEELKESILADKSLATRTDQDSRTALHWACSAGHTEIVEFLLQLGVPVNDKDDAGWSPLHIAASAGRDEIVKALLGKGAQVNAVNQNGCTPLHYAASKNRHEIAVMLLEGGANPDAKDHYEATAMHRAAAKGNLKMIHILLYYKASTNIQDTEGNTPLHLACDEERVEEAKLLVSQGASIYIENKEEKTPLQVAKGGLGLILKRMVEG
UniProt Q8NDX1: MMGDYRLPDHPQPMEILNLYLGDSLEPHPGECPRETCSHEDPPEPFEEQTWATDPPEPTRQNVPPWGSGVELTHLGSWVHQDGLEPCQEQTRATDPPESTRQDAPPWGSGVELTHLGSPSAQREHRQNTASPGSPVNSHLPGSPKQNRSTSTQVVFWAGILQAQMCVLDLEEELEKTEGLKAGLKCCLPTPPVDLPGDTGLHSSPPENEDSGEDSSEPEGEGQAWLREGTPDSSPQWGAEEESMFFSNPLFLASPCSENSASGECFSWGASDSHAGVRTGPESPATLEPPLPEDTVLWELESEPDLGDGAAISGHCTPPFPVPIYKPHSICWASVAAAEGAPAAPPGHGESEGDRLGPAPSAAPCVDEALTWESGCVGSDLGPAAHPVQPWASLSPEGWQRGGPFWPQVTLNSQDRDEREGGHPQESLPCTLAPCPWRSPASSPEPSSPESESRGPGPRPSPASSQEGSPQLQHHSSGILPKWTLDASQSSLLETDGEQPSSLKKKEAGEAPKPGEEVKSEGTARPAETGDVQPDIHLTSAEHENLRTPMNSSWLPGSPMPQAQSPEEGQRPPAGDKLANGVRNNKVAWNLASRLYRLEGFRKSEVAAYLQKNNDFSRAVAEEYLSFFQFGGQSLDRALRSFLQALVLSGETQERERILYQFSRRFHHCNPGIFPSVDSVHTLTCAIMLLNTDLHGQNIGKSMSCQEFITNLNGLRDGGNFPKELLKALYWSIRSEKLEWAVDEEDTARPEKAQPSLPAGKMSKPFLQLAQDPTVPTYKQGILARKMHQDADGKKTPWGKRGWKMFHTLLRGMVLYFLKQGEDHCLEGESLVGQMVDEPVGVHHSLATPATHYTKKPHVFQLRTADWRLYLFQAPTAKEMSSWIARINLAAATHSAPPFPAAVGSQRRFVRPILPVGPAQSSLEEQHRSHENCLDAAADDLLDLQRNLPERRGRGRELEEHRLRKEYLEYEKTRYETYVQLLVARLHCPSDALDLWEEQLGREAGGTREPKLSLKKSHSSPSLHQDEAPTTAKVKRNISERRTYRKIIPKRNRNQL
UniProt O00233: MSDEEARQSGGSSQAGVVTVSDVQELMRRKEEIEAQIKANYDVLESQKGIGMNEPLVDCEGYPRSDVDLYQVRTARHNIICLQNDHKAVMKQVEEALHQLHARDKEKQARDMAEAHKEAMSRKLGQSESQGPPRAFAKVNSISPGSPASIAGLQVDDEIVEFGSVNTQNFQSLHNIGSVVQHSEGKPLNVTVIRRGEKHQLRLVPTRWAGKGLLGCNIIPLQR
UniProt P06454: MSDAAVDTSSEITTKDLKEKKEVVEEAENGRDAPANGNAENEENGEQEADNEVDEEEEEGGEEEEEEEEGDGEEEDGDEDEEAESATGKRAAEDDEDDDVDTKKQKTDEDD
UniProt Q05209: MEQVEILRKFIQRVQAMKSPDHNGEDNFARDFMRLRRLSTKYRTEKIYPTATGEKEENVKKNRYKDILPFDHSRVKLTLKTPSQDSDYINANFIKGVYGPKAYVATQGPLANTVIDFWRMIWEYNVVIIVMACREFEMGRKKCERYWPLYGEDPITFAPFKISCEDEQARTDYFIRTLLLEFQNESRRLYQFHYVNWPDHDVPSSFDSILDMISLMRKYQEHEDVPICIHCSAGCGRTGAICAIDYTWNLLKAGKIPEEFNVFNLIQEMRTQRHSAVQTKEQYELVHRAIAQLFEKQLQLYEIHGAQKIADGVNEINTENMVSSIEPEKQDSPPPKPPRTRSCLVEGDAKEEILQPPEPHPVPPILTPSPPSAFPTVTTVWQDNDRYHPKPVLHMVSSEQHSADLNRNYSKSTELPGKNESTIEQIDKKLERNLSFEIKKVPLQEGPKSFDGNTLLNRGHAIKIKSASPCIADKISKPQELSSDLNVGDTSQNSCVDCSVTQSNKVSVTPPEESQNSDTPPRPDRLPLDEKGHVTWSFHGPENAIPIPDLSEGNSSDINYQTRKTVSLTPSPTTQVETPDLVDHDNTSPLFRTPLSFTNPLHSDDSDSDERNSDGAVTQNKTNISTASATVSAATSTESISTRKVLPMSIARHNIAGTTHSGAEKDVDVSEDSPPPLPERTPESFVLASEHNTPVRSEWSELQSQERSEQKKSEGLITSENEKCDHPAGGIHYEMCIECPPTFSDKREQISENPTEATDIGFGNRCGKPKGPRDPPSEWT
UniProt Q92932: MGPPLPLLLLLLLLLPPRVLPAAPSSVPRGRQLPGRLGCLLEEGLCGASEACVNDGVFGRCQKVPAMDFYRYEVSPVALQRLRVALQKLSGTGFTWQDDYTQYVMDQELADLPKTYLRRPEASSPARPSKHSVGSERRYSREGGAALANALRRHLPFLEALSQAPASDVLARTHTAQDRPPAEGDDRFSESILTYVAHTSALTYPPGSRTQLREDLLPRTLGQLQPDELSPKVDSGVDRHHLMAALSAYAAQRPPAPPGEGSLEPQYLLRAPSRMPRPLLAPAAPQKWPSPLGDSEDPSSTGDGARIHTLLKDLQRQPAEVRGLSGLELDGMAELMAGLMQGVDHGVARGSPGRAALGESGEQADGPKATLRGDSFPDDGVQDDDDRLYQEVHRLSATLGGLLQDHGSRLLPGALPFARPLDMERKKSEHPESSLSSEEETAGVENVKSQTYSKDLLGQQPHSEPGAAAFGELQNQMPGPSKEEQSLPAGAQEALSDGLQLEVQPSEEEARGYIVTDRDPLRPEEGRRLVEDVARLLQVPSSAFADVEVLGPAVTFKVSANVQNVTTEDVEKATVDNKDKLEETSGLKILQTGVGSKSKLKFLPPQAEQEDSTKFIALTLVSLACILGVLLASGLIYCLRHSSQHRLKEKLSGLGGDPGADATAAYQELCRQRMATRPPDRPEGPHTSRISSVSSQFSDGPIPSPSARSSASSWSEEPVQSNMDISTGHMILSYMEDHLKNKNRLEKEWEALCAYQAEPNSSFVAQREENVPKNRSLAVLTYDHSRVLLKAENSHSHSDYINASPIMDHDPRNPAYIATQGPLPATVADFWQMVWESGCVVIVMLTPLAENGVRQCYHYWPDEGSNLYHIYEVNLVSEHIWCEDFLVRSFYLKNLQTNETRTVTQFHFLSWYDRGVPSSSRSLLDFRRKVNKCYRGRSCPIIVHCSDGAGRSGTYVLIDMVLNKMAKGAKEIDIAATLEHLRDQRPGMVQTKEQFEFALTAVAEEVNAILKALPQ
UniProt P51665: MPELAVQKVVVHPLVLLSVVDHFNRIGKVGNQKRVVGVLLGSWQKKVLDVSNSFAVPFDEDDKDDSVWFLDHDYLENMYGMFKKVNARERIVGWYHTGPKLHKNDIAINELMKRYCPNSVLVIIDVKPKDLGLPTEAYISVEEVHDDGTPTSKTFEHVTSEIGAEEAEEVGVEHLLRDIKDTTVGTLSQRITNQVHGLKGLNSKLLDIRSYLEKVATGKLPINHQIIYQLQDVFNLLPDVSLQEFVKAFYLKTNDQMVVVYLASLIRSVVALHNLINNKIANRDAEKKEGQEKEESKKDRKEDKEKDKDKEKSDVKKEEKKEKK
UniProt Q13200: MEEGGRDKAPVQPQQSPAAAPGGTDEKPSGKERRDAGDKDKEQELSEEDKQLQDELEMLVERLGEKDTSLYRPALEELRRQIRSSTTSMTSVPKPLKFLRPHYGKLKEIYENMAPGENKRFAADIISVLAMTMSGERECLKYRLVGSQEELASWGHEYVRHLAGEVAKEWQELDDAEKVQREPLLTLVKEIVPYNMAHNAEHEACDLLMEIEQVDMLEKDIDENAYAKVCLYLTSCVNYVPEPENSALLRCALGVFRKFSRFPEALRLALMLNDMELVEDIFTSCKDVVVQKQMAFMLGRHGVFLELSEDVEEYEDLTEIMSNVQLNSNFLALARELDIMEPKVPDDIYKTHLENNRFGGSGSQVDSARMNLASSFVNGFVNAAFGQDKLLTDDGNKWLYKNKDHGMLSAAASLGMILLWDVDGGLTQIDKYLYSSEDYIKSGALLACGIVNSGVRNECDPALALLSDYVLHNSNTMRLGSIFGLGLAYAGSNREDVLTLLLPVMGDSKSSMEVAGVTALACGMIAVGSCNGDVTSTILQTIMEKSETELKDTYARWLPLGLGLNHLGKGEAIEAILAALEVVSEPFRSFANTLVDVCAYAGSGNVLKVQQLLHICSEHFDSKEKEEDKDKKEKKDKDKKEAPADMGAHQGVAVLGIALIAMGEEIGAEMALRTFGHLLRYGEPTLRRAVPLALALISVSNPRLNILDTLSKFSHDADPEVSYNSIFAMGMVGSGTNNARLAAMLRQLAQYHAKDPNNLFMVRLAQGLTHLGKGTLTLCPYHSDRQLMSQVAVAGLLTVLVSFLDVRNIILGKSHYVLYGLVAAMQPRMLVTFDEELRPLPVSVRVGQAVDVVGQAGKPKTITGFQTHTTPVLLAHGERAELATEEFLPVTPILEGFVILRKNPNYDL
UniProt P35998: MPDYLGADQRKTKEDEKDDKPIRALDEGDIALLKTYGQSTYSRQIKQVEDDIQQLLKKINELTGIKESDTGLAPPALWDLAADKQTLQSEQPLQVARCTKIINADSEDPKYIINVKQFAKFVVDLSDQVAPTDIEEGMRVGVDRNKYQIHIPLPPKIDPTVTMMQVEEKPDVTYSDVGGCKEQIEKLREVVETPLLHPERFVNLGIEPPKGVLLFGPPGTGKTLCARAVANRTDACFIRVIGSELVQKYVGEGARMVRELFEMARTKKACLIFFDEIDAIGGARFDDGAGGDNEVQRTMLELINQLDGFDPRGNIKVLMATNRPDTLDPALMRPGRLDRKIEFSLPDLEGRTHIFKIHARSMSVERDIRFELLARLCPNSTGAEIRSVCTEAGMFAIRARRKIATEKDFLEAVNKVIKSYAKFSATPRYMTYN
UniProt P53801: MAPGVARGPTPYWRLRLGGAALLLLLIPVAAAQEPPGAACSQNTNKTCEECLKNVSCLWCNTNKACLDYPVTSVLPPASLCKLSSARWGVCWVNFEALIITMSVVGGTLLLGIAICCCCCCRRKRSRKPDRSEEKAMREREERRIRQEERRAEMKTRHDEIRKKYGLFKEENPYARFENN

Experiments:
Test in all cases: log2 fold change, soluble protein after heating vs DMSO (PISA); higher = thermal stabilisation; K562 cells, 10 uM, 30 min; active = over 0.2 and 3.5 SD of the protein, either way, in both replicates (recomputed)
saracatinib = compound: CN1CCN(CCOc2cc(OC3CCOCC3)c3c(Nc4c(Cl)ccc5c4OCO5)ncnc3c2)CC1 [saracatinib]
How it was run: (§1)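 K562 cells at 2×10^6 cells/mL were treated for 30 min with 10 μM compound, and aliquots were heated for 3 min over 48°C-58°C before pooling. Extraction used PBS with 0.5% NP-40 at 4°C, and soluble protein was the supernatant after 21,000xg for 90 min, measured by TMTpro 16plex LC-MS/MS with channel sums equalised. Thermal stability values, relative to control samples and from duplicates, are log2 fold changes.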

sotrastaurin = compound: CN1CCN(c2nc(C3=C(c4c[nH]c5ccccc45)C(=O)NC3=O)c3ccccc3n2)CC1 [sotrastaurin]
How it was run: as §1

alvocidib = compound: CN1CC[C@H](c2c(O)cc(O)c3c(=O)cc(-c4ccccc4Cl)oc23)[C@H](O)C1 [alvocidib]
How it was run: as §1

Tubastatin A = compound: CN1CCc2c(c3ccccc3n2Cc2ccc(C(=O)NO)cc2)C1 [Tubastatin A]
How it was run: as §1

[1] = compound: CNC(=O)C1=CC=CC=C1NC2=NC(=NC=C2Cl)NC3=C(C=C(C=C3)N4CCOCC4)OC
How it was run: as §1

defactinib = compound: CNC(=O)c1ccc(Nc2ncc(C(F)(F)F)c(NCc3nccnc3N(C)S(C)(=O)=O)n2)cc1 [defactinib]
How it was run: as §1

rucaparib = compound: CNCc1ccc(-c2[nH]c3cc(F)cc4c3c2CCNC4=O)cc1 [rucaparib]
How it was run: as §1

[2] = compound: CNc1nc(-c2ccc3c(N)n[nH]c3c2)cc(N2C[C@@H](C(=O)NC3CCCCC3)CC[C@H]2C)n1
How it was run: as §1

encorafenib = compound: COC(=O)N[C@@H](C)CNc1nccc(-c2cn(C(C)C)nc2-c2cc(Cl)cc(NS(C)(=O)=O)c2F)n1 [encorafenib]
How it was run: as §1

[3] = compound: COC(=O)[C@H](CCSC)NC(=O)C1=C(C=C(C=C1)NC[C@H](CS)N)C2=CC=CC=C2
How it was run: as §1

[4] = compound: COC1=CC=C(C=C1)CN2C=CC3=C2C=C(C=C3)C(=O)NO
How it was run: as §1

filanesib = compound: CON(C)C(=O)N1N=C(c2cc(F)ccc2F)S[C@@]1(CCCN)c1ccccc1 [filanesib]
How it was run: as §1

zotarolimus = compound: CO[C@H]1C[C@@H]2CC[C@@H](C)[C@@](O)(O2)C(=O)C(=O)N2CCCC[C@H]2C(=O)O[C@H]([C@H](C)C[C@@H]2CC[C@H](n3cnnn3)[C@H](OC)C2)CC(=O)[C@H](C)/C=C(\C)[C@@H](O)[C@@H](OC)C(=O)[C@H](C)C[C@H](C)/C=C/C=C/C=C/1C [zotarolimus]
How it was run: as §1

idasanutlin = compound: COc1cc(C(=O)O)ccc1NC(=O)[C@@H]1N[C@@H](CC(C)(C)C)[C@](C#N)(c2ccc(Cl)cc2F)[C@H]1c1cccc(Cl)c1F [idasanutlin]
How it was run: as §1

alisertib = compound: COc1cc(Nc2ncc3c(n2)-c2ccc(Cl)cc2C(c2c(F)cccc2OC)=NC3)ccc1C(=O)O [alisertib]
How it was run: as §1

[5] = compound: COc1cc2nc(-c3cc(F)ccc3O)nc(N[C@@H]3CNC[C@H]3C(C)(C)O)c2cc1OC
How it was run: as §1

gefitinib = compound: COc1cc2ncnc(Nc3ccc(F)c(Cl)c3)c2cc1OCCCN1CCOCC1 [gefitinib]
How it was run: as §1

[6] = compound: COc1cccc2cc(-c3nc([C@H]4CC[C@H](C(=O)O)CC4)n4ncnc(N)c34)[nH]c12
How it was run: as §1

lapatinib = compound: CS(=O)(=O)CCNCc1ccc(-c2ccc3ncnc(Nc4ccc(OCc5cccc(F)c5)c(Cl)c4)c3c2)o1 [lapatinib]
How it was run: as §1

pictilisib = compound: CS(=O)(=O)N1CCN(Cc2cc3nc(-c4cccc5[nH]ncc45)nc(N4CCOCC4)c3s2)CC1 [pictilisib]
How it was run: as §1

Row | Target | log2 fold change (saracatinib) | log2 fold change (sotrastaurin) | log2 fold change (alvocidib) | log2 fold change (Tubastatin A) | log2 fold change [1] | log2 fold change (defactinib) | log2 fold change (rucaparib) | log2 fold change [2] | log2 fold change (encorafenib) | log2 fold change [3] | log2 fold change [4] | log2 fold change (filanesib) | log2 fold change (zotarolimus) | log2 fold change (idasanutlin) | log2 fold change (alisertib) | log2 fold change [5] | log2 fold change (gefitinib) | log2 fold change [6] | log2 fold change (lapatinib) | log2 fold change (pictilisib)
1 | PSMA6 (UniProt P60900) | inactive: -0.016 | inactive: -0.025 | inactive: 0.068 | inactive: -0.012 | inactive: 0.113 | inactive: 0.069 | inactive: -0.013 | inactive: -0.028 | inactive: 0.022 | inactive: 0.014 | inactive: 0.03 | inactive: 0.03 | inactive: -0.01 | inactive: -0.002 | inactive: -0.025 | inactive: -0.048 | inactive: -0.051 | inactive: -0.03 | inactive: 0.019 | inactive: 0.043
2 | PSMD4 (UniProt P55036) | inactive: -0.041 | inactive: -0.002 | inactive: 0.035 | inactive: -0.021 | inactive: -0.013 | inactive: 0.053 | inactive: 0.013 | inactive: 0.031 | inactive: 0.027 | inactive: 0.015 | inactive: -0.006 | inactive: 0.05 | inactive: 0.002 | inactive: 0.059 | inactive: -0.098 | inactive: -0.046 | inactive: -0.027 | inactive: -0.043 | inactive: 0.07 | inactive: -0.109
3 | PXN (UniProt P49023) | inactive: 0.055 | inactive: -0.065 | inactive: 0.002 | inactive: -0.011 | inactive: -0.025 | inactive: 0.009 | inactive: -0.022 | inactive: -0.085 | inactive: -0.015 | inactive: 0.038 | inactive: 0.068 | inactive: -0.045 | inactive: 0.013 | inactive: 0.022 | inactive: -0.026 | inactive: -0.061 | inactive: -0.015 | inactive: 0.036 | inactive: -0.019 | inactive: -0.038
4 | PYCARD (UniProt Q9ULZ3) | inactive: 0.101 | inactive: 0.033 | inactive: -0.123 | inactive: -0.019 | inactive: -0.022 | inactive: -0.028 | inactive: -0.071 | inactive: 0.001 | inactive: -0.003 | inactive: -0.023 | inactive: 0.078 | inactive: -0.053 | inactive: 0.044 | inactive: -0.089 | inactive: -0.021 | inactive: -0.025 | inactive: 0.025 | inactive: 0.016 | inactive: 0.031 | inactive: 0.029
5 | PSMD10 (UniProt O75832) | inactive: 0.029 | inactive: -0.033 | inactive: -0.1 | inactive: 0.04 | inactive: 0.102 | inactive: -0.099 | inactive: 0.008 | inactive: 0.01 | inactive: 0.066 | inactive: -0.051 | inactive: 0.072 | inactive: 0.005 | inactive: 0.058 | inactive: -0.068 | inactive: -0.01 | inactive: 0.059 | inactive: 0.013 | inactive: -0.025 | inactive: -0.041 | inactive: -0.07
6 | PRUNE1 (UniProt Q86TP1) | inactive: -0.071 | inactive: -0.045 | – | inactive: 0.017 | inactive: 0.007 | inactive: -0.05 | inactive: 0.027 | inactive: 0.033 | inactive: 0.006 | inactive: 0.005 | inactive: -0.083 | inactive: -0.047 | inactive: 0.026 | inactive: 0.023 | inactive: 0.091 | inactive: 0.059 | inactive: 0.006 | inactive: -0.007 | inactive: -0.038 | inactive: 0.072
7 | PSD4 (UniProt Q8NDX1) | inactive: 0.005 | inactive: -0.211 | inactive: -0.169 | inactive: 0.013 | inactive: 0.018 | inactive: -0.413 | inactive: 0.338 | inactive: -0.025 | inactive: 0.116 | inactive: -0.092 | inactive: 0.004 | inactive: 0.113 | inactive: 0.186 | inactive: 0.147 | – | – | inactive: -0.049 | – | – | –
8 | PSMD9 (UniProt O00233) | inactive: -0.022 | inactive: 0.001 | – | inactive: 0.002 | inactive: -0.016 | inactive: -0.034 | inactive: -0.004 | inactive: -0.031 | inactive: -0.023 | inactive: 0.005 | inactive: -0.028 | inactive: -0.053 | inactive: -0.021 | inactive: 0.005 | inactive: -0.074 | inactive: 0.056 | inactive: -0.013 | inactive: -0.005 | inactive: -0.021 | active: -0.261
9 | PSEN1 (UniProt P49768) | inactive: -0.019 | inactive: 0.164 | inactive: -0.083 | inactive: -0.024 | – | inactive: -0.089 | inactive: -0.017 | inactive: -0.05 | inactive: -0.021 | inactive: 0.037 | inactive: -0.077 | inactive: -0.04 | inactive: 0.078 | – | inactive: -0.03 | inactive: 0.017 | inactive: 0.007 | inactive: 0.128 | inactive: -0.044 | –
10 | PTMA (UniProt P06454) | inactive: 0.016 | inactive: -0.026 | – | inactive: 0.098 | inactive: -0.07 | inactive: -0.108 | inactive: 0.02 | inactive: 0.01 | inactive: -0.05 | inactive: -0.059 | inactive: 0.118 | inactive: -0.093 | inactive: -0.054 | inactive: -0.045 | active: -0.596 | inactive: -0.049 | inactive: 0.029 | inactive: 0.043 | inactive: -0.016 | inactive: 0.001
11 | PTPN12 (UniProt Q05209) | inactive: 0.085 | inactive: -0.148 | – | inactive: 0.064 | inactive: 0.063 | inactive: 0.006 | inactive: 0.047 | inactive: -0.04 | inactive: 0.076 | inactive: -0.088 | inactive: -0.024 | inactive: 0.04 | inactive: 0.041 | inactive: -0.021 | inactive: -0.06 | inactive: 0.053 | inactive: 0.025 | inactive: -0.132 | inactive: 0.039 | inactive: 0.012
12 | PTPN2 (UniProt P17706) | inactive: -0.001 | inactive: -0.022 | inactive: -0.088 | inactive: -0.054 | inactive: 0.02 | inactive: -0.139 | inactive: 0.017 | inactive: 0.052 | inactive: -0.012 | inactive: -0.056 | inactive: 0.027 | inactive: 0.152 | inactive: 0.065 | inactive: -0.11 | inactive: 0.064 | inactive: 0.078 | – | inactive: -0.084 | inactive: 0.022 | inactive: 0.023
13 | PTPRN2 isoform 3 (UniProt Q92932) | inactive: -0.254 | inactive: 0.243 | inactive: 0.311 | – | – | – | inactive: -0.03 | inactive: -0.05 | inactive: -0.072 | – | inactive: -0.355 | inactive: 0.109 | inactive: -0.42 | inactive: 0.093 | inactive: 1.22 | – | inactive: 0.036 | inactive: 0.037 | – | –
14 | PSMD7 (UniProt P51665) | inactive: -0.018 | inactive: -0.028 | – | inactive: 0.001 | inactive: 0.015 | inactive: 0.079 | inactive: 0.063 | inactive: 0.022 | inactive: 0.03 | inactive: 0.017 | inactive: -0.059 | inactive: 0.054 | inactive: -0.014 | inactive: 0.01 | inactive: -0.032 | inactive: -0.027 | inactive: -0.049 | inactive: -0.022 | inactive: 0.089 | inactive: -0.078
15 | PSMD2 (UniProt Q13200) | inactive: -0.047 | inactive: -0.029 | – | inactive: -0.014 | inactive: -0.033 | inactive: 0.061 | inactive: 0.035 | inactive: 0.01 | inactive: 0.051 | inactive: 0.012 | inactive: -0.036 | inactive: 0.051 | inactive: -0.015 | inactive: 0.039 | inactive: -0.089 | inactive: -0.071 | inactive: -0.043 | inactive: -0.053 | inactive: 0.077 | inactive: -0.059
16 | PSMC2 (UniProt P35998) | inactive: -0.024 | inactive: -0.03 | – | inactive: -0.01 | inactive: -0.014 | inactive: 0.061 | inactive: 0.033 | inactive: 0.035 | inactive: 0.018 | inactive: 0.001 | inactive: -0.076 | inactive: 0.049 | inactive: -0.03 | inactive: 0.033 | inactive: -0.05 | inactive: -0.034 | inactive: -0.051 | inactive: -0.05 | inactive: 0.059 | inactive: -0.067
17 | PTTG1IP (UniProt P53801) | inactive: 0.021 | inactive: -0.03 | – | inactive: -0.085 | inactive: 0.062 | inactive: -0.011 | inactive: 0.013 | inactive: -0.246 | inactive: -0.052 | inactive: 0.129 | inactive: -0.013 | inactive: -0.186 | inactive: -0.124 | inactive: -0.004 | inactive: -0.046 | inactive: 0.038 | inactive: 0.158 | inactive: 0.007 | inactive: -0.096 | inactive: 0.086

An excerpt of these results, with tabs:
Row	Target	log2 fold change (saracatinib)	log2 fold change (sotrastaurin)	log2 fold change (alvocidib)	log2 fold change (Tubastatin A)	log2 fold change [1]	log2 fold change (defactinib)	log2 fold change (rucaparib)	log2 fold change [2]	log2 fold change (encorafenib)	log2 fold change [3]	log2 fold change [4]	log2 fold change (filanesib)	log2 fold change (zotarolimus)	log2 fold change (idasanutlin)	log2 fold change (alisertib)	log2 fold change [5]	log2 fold change (gefitinib)	log2 fold change [6]	log2 fold change (lapatinib)	log2 fold change (pictilisib)
5	PSMD10 (UniProt O75832)	inactive: 0.029	inactive: -0.033	inactive: -0.1	inactive: 0.04	inactive: 0.102	inactive: -0.099	inactive: 0.008	inactive: 0.01	inactive: 0.066	inactive: -0.051	inactive: 0.072	inactive: 0.005	inactive: 0.058	inactive: -0.068	inactive: -0.01	inactive: 0.059	inactive: 0.013	inactive: -0.025	inactive: -0.041	inactive: -0.07
16	PSMC2 (UniProt P35998)	inactive: -0.024	inactive: -0.03	–	inactive: -0.01	inactive: -0.014	inactive: 0.061	inactive: 0.033	inactive: 0.035	inactive: 0.018	inactive: 0.001	inactive: -0.076	inactive: 0.049	inactive: -0.03	inactive: 0.033	inactive: -0.05	inactive: -0.034	inactive: -0.051	inactive: -0.05	inactive: 0.059	inactive: -0.067
